In article PMC9343379 one finds binding data, which are given here for 1 molecule.

These are yes or no findings as the source states them, for the method shown. In cells and extracts the contact can be indirect. Some results given as binding are weak or reduced against the parent protein; the word gives no strength.

The test concerns the target p53 (human (endogenous in HCT116 and Hela)), P04637. Briefly: co-IP; endogenous p53 and endogenous MDM2 or USP11 in HCT116 cells; also compared in control and RRM1 knockdown cells after radiation treatment. The settings on record: remark: other sources report otherwise.

B1: Ubiquitin-specific protease USP11, P51784 1-963 (enzyme)
chain: MAVAPRLFGGLCFRFRDQNPEVAVEGRLPISHSCVGCRRERTAMATVAANPAAAAAAVAAAAAVTEDREPQHEELPGLDSQWRQIENGESGRERPLRAGESWFLVEKHWYKQWEAYVQGGDQDSSTFPGCINNATLFQDEINWRLKEGLVEGEDYVLLPAAAWHYLVSWYGLEHGQPPIERKVIELPNIQKVEVYPVELLLVRHNDLGKSHTVQFSHTDSIGLVLRTARERFLVEPQEDTRLWAKNSEGSLDRLYDTHITVLDAALETGQLIIMETRKKDGTWPSAQLHVMNNNMSEEDEDFKGQPGICGLTNLGNTCFMNSALQCLSNVPQLTEYFLNNCYLEELNFRNPLGMKGEIAEAYADLVKQAWSGHHRSIVPHVFKNKVGHFASQFLGYQQHDSQELLSFLLDGLHEDLNRVKKKEYVELCDAAGRPDQEVAQEAWQNHKRRNDSVIVDTFHGLFKSTLVCPDCGNVSVTFDPFCYLSVPLPISHKRVLEVFFIPMDPRRKPEQHRLVVPKKGKISDLCVALSKHTGISPERMMVADVFSHRFYKLYQLEEPLSSILDRDDIFVYEVSGRIEAIEGSREDIVVPVYLRERTPARDYNNSYYGLMLFGHPLLVSVPRDRFTWEGLYNVLMYRLSRYVTKPNSDDEDDGDEKEDDEEDKDDVPGPSTGGSLRDPEPEQAGPSSGVTNRCPFLLDNCLGTSQWPPRRRRKQLFTLQTVNSNGTSDRTTSPEEVHAQPYIAIDWEPEMKKRYYDEVEAEGYVKHDCVGYVMKKAPVRLQECIELFTTVETLEKENPWYCPSCKQHQLATKKLDLWMLPEILIIHLKRFSYTKFSREKLDTLVEFPIRDLDFSEFVIQPQNESNPELYKYDLIAVSNHYGGMRDGHYTTFACNKDSGQWHYFDDNSVSPVNENQIESKAAYVLFYQRQDVARRLLSPAGSSGAPASPACSSPPSSEFMDVN
For B1, the binding entry is “binds”.
